PubChem BioAssay AID1259308, NCATS – 2017

Test: 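Candidate targets for better recombinant protein yield in mammalian cells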 (primary screen)
Cell system: human HEK293 embryonic kidney cells stably expressing firefly luciferase (HEK-CMV-Luc2-Hygro)
Reagents: single siRNA against human genes, 0.8 pmol siRNA per well
Timing: 72 h
Measured: 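Reporter luminescence and viable-cell signal on separate replicate plates, given as percent of non-targeting control and median/MAD z-scores, plus per-cell luciferase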
Scale: total luciferase, z-score: higher = more reporter protein produced
Rule for the call: 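Active when the median/MAD z-score for overall luciferase is greater than 3; a gene was taken forward for validation with new siRNAs if at least two of its three siRNAs passed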
Calls: active = raised luciferase; inactive = no rise
The deposit covers about 59,000 reagents; shown is a random part of them. Of all reagents, about 1,510 (2.6%) got an active call. 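Calls use total luciferase alone and ignore viability, so some active siRNAs may act by altering cell number.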 A number with no mark means an inactive call. The numbers tell different reagents against one gene apart. Further read-outs or replicates are left out here.

Target gene	reagent	total luciferase, z-score
EDRF1	1	-2.33
EDRF1	2	0.368
EDRF1	3	-1.78
DCAF10	1	0.129
DCAF10	2	-0.634
DCAF10	3	0.262
PPP1R3A	1	0.335
PPP1R3A	2	-0.795
PPP1R3A	3	-1.66
NBN	1	0.411
NBN	2	0.687
NBN	3	-0.877
ADAMDEC1	1	0.0513
ADAMDEC1	2	-0.903
ADAMDEC1	3	-0.558
SSH2	1	-0.56
SSH2	2	-0.0638
SSH2	3	-0.839
NDUFB11	1	0.0421
NDUFB11	2	0.0294
NDUFB11	3	2.31
LAMP5	1	0.162
LAMP5	2	-0.508
LAMP5	3	0.283

Entries above whose gene name starts with N or n (6):
Target gene	reagent	total luciferase, z-score
NBN	1	0.411
NBN	2	0.687
NBN	3	-0.877
NDUFB11	1	0.0421
NDUFB11	2	0.0294
NDUFB11	3	2.31
